Assay results published in PMC11935212.

The chains behind the UniProt entries cited, without tags or fusion partners. Residues count along the entry.
UniProt Q15116, 25-170: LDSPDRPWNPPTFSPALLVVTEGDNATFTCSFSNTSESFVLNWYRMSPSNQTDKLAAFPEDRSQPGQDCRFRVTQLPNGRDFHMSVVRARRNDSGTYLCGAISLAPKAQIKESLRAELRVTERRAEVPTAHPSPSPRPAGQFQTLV

Experiments:
[1] = biological target: sPD-L1 (soluble programmed death ligand 1) (UniProt Q9NZQ7); assay: binding assay; settings: dithiol/thiol; chemically modified on both ends (further details not in the material); DPV in 0.1 M PBS with 5 mM ferricyanide (PBS pH 7.2), aptamer on Au NIs/SPCE with MCH and BSA; temperature not given; commercial protein; single-stranded DNA
[2] = biological target: PD1 (programmed cell death protein 1) (UniProt Q15116); assay: delta current about 5-fold smaller than for sPD-L1; settings: dithiol/thiol; chemically modified on both ends (further details not in the material); DPV in 0.1 M PBS with 5 mM ferricyanide (PBS pH 7.2), aptamer on Au NIs/SPCE with MCH and BSA; temperature not given; single-stranded DNA
[3] = test system: insulin; assay: delta current about 5-fold smaller than for sPD-L1; settings: dithiol/thiol; chemically modified on both ends (further details not in the material); DPV in 0.1 M PBS with 5 mM ferricyanide (PBS pH 7.2), aptamer on Au NIs/SPCE with MCH and BSA; temperature not given; single-stranded DNA
[4] = biological target: sPD-L1 (soluble programmed death ligand 1) (UniProt Q9NZQ7); assay: aptamer on Au NIs/SPCE, MCH and BSA passivated; sensor LOD 0.76 aM (not a Kd); settings: dithiol/thiol, chemically modified on both ends (further details not in the material), DPV in 0.1 M PBS with 5 mM ferricyanide (PBS pH 7.2), temperature not given, commercial protein, single-stranded DNA

How did the Kd [1] turn out when “AAGACGGACCAGCCTTGCCGCAAGACGGACCAGGGATT [sPD-L1 DNA aptamer (38 nt)]” was run?
Its Kd is 51.3 nM.

Does “AAGACGGACCAGCCTTGCCGCAAGACGGACCAGGGATT [sPD-L1 DNA aptamer (38 nt)]” bind [2]?
Result: binds more weakly

Does “AAGACGGACCAGCCTTGCCGCAAGACGGACCAGGGATT [sPD-L1 DNA aptamer (38 nt)]” bind [3]?
Result: binds more weakly

Does “AAGACGGACCAGCCTTGCCGCAAGACGGACCAGGGATT [sPD-L1 DNA aptamer (38 nt)]” bind [4]?
Result: binds

Construct, isoform or probe ends are uncertain for at least one entry. For some of these results: A weaker result is weaker than the reference pair of the same experiment.
